SMILES strings stand for the structures.

The test system of the data set is lymphatic absorption of cholesterol. The experiment in a line: Lymphatic absorption of 14C-cholesterol in lymph-cannulated rats infused with lipid emulsion. It is filed as in vivo, rat. How it is done:
Ten male Sprague-Dawley rats (Harlan Sprague Dawley, Inc., Indianapolis, Ind.) weighing 274.3±7.8 grams were housed individually in plastic cages in an environmentally controlled room of illumination (12:12-h light/dark cycle with the dark period from 0330 to 1530), humidity (60-70%), and temperature (22-25° C.) throughout the study. Rats had free access to deionized water and a nutritionally adequate diet (Table 1) containing soybean oil as the fat source and egg white as the protein source. The diet was formulated according to AIN-93G recommendations (In: Trace Elements in Laboratory Rodents (Watson, R. R., ed.), pp. 3-37. CRC Press, Boca Raton, Fla.). […]
During the duodenal infusion of lipid emulsion, lymph samples were collected hourly in preweighed ice-chilled centrifuge tubes containing 4 mg Na2-EDTA and 30 μg n-propyl gallate (Sigma Chemical, St. Louis, Mo.) as antioxidants. A portion of each lymph sample (100 μL) was mixed with scintillation liquid (ScintiVerse; Fisher Scientific, Fair Lawn, N.J.) and counted by scintillation spectrometry (Beckman LS-6500; Beckman Instruments, Fullerton, Calif.). The total ^14C-radioactivity appearing in hourly lymph volume (the hourly rates of ^14C-CH absorption) was expressed as a percentage of the total radioactivity infused (% dose). […]

As to `CC1(C)CCC[C@]2(C)C3=Cc4c(cc(O)c(O)c4Cl)O[C@]3(C)CC[C@@H]12` [Compound 1, (4aS,6aR,12bS)-2H-11-Chloro-1,3,4,4a,5,6,6a,12b-octahydro-4,4,6a,12b-tetramethyl-benzo[a]xanthene-9,10-diol], the “lymph volume compared to control” value (rats infused for eight hours) was “not significantly different”. Under “rats, 8 h duodenal infusion of lipid emulsion with 114.9 μmol (41.9 mg) compound 1, means ± SD, n = 5”, the Lymph volume was found to be 16.59 ± 4.20 mL/8 h.

For the origin of these results see patent publication US6727277B1, “Compounds affecting cholesterol absorption” (Kansas State University Research Foundation, priority 2002, dated 2004).
